US8017579B2 (priority 2003, dated 2011)
Plain letter strings leave the end groups untold.

Test: peptide made by a vendor
Details: whole synthesis, scale of the general procedure 5 micromole

## WRWRKRWRKWRWRKRWRK
  final HPLC purity: >80%
